# Results: the supplement of paper PMC8728848
# This is one part of the list.
# Tests used:
# Assay in all cases: glycan array binding signal (z-score within array); higher = stronger binding
# Conditions in all cases: glycan notation: IUPAC condensed, linker removed; mutation: Y54A
# [1] = molecular target: GlcNAc(b1-3)Gal(b1-4)GlcNAc(b1-3)Gal(b1-4)GlcNAc(b1-3)Gal(b1-4)GlcNAc(b1-3)Gal(b1-4)GlcNAc(b1-2)[GlcNAc(b1-3)Gal(b1-4)GlcNAc(b1-3)Gal(b1-4)GlcNAc(b1-3)Gal(b1-4)GlcNAc(b1-3)Gal(b1-4)GlcNAc(b1-6)]Man(a1-6)[GlcNAc(b1-3)Gal(b1-4)GlcNAc(b1-3)Gal(b1-4)GlcNAc(b1-3)Gal(b1-4)GlcNAc(b1-3)Gal(b1-4)GlcNAc(b1-2)Man(a1-3)]Man(b1-4)GlcNAc(b1-4)[Fuc(a1-6)]GlcNAc
# Summary of the method: (§1)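 The Consortium for Functional Glycomics database supplied 3228 glycan arrays, of which those lacking an available protein sequence were dropped. The binding signal, a within-array Z-score, was averaged across arrays of the same protein sequence and across linkers. Negative scores can be read as non-binding.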
# [2] = molecular target: GlcNAc(b1-3)Gal(b1-4)GlcNAc(b1-3)Gal(b1-4)GlcNAc(b1-3)GalNAc
# Summary of the method: as §1
# [3] = molecular target: GlcNAc(b1-3)Gal(b1-4)GlcNAc(b1-3)GalNAc
# Summary of the method: as §1
# [4] = molecular target: GlcNAc(b1-3)Gal(b1-4)GlcNAc(b1-3)[GlcNAc(b1-3)Gal(b1-4)GlcNAc(b1-3)]GalNAc
# Summary of the method: as §1
# [5] = molecular target: GlcNAc(b1-3)Gal(b1-4)GlcNAc(b1-6)[Gal(b1-3)]GalNAc
# Summary of the method: as §1
# [6] = molecular target: GlcNAc(b1-3)Gal(b1-4)GlcNAc(b1-6)[GlcNAc(b1-3)Gal(b1-3)]GalNAc
# Summary of the method: as §1
# [7] = molecular target: GlcNAc(b1-3)Gal(b1-4)GlcNAc(b1-6)[GlcNAc(b1-3)]Gal(b1-4)GlcNAc
# Summary of the method: as §1
# GlcNAc(b1-3)GalNAc = molecular target: GlcNAc(b1-3)GalNAc
# Summary of the method: as §1
# GlcNAc(b1-3)Man = molecular target: GlcNAc(b1-3)Man
# Summary of the method: as §1
# [8] = molecular target: GlcNAc(b1-3)[GlcNAc(b1-4)][GlcNAc(b1-6)]GlcNAc
# Summary of the method: as §1
# [9] = molecular target: GlcNAc(b1-3)[GlcNAc(b1-6)]Gal(b1-4)GlcNAc
# Summary of the method: as §1
# [10] = molecular target: GlcNAc(b1-3)[GlcNAc(b1-6)]GalNAc
# Summary of the method: as §1
# [11] = molecular target: GlcNAc(b1-4)Gal(b1-4)GlcNAc
# Summary of the method: as §1
# GlcNAc(b1-4)GlcNAc = molecular target: GlcNAc(b1-4)GlcNAc
# Summary of the method: as §1
# [12] = molecular target: GlcNAc(b1-4)GlcNAc(b1-4)GlcNAc
# Summary of the method: as §1
# [13] = molecular target: GlcNAc(b1-4)GlcNAc(b1-4)GlcNAc(b1-4)GlcNAc(b1-4)GlcNAc
# Summary of the method: as §1
# [14] = molecular target: GlcNAc(b1-4)GlcNAc(b1-4)GlcNAc(b1-4)GlcNAc(b1-4)GlcNAc(b1-4)GlcNAc
# Summary of the method: as §1
# [15] = molecular target: GlcNAc(b1-4)[GlcNAc(b1-6)]GalNAc
# Summary of the method: as §1
# [16] = molecular target: GlcNAc(b1-6)Gal(b1-4)GlcNAc
# Summary of the method: as §1
# GlcNAc(b1-6)GalNAc = molecular target: GlcNAc(b1-6)GalNAc
# Summary of the method: as §1
# [17] = molecular target: GlcNAc6S(b1-3)Gal(b1-4)GlcNAc
# Summary of the method: as §1
# Kdn(a2-3)Gal(b1-3)GalNAc = molecular target: Kdn(a2-3)Gal(b1-3)GalNAc
# Summary of the method: as §1
# Kdn(a2-3)Gal(b1-3)GlcNAc = molecular target: Kdn(a2-3)Gal(b1-3)GlcNAc
# Summary of the method: as §1
# Kdn(a2-3)Gal(b1-4)Glc = molecular target: Kdn(a2-3)Gal(b1-4)Glc
# Summary of the method: as §1
# Kdn(a2-3)Gal(b1-4)GlcNAc = molecular target: Kdn(a2-3)Gal(b1-4)GlcNAc
# Summary of the method: as §1
# [18] = molecular target: Kdn(a2-3)Gal(b1-4)[Fuc(a1-3)]GlcNAc
# Summary of the method: as §1
# Kdn(a2-6)Gal(b1-4)GlcNAc = molecular target: Kdn(a2-6)Gal(b1-4)GlcNAc
# Summary of the method: as §1
# [19] = molecular target: Man(a1-2)Man(a1-2)Man(a1-3)Man
# Summary of the method: as §1
# [20] = molecular target: Man(a1-2)Man(a1-2)Man(a1-6)[Man(a1-3)]Man
# Summary of the method: as §1
# Man(a1-2)Man(a1-3)Man = molecular target: Man(a1-2)Man(a1-3)Man
# Summary of the method: as §1
# [21] = molecular target: Man(a1-2)Man(a1-3)[Man(a1-2)Man(a1-6)]Man
# Summary of the method: as §1
# [22] = molecular target: Man(a1-2)Man(a1-3)[Man(a1-2)Man(a1-6)]Man(a1-6)[Man(a1-2)Man(a1-2)Man(a1-3)]Man
# Summary of the method: as §1
# [23] = molecular target: Man(a1-2)Man(a1-3)[Man(a1-2)Man(a1-6)]Man(a1-6)[Man(a1-2)Man(a1-2)Man(a1-3)]Man(b1-4)GlcNAc(b1-4)GlcNAc
# Summary of the method: as §1
# [24] = molecular target: Man(a1-2)Man(a1-3)[Man(a1-6)]Man(a1-6)[Man(a1-2)Man(a1-3)]Man(b1-4)GlcNAc(b1-4)GlcNAc
# Summary of the method: as §1
# [25] = molecular target: Man(a1-2)Man(a1-6)[Man(a1-3)]Man(a1-6)[Man(a1-2)Man(a1-2)Man(a1-3)]Man
# Summary of the method: as §1
# [26] = molecular target: Man(a1-2)Man(a1-6)[Man(a1-3)]Man(a1-6)[Man(a1-2)Man(a1-2)Man(a1-3)]Man(b1-4)GlcNAc(b1-4)GlcNAc
# Summary of the method: as §1
# Man(a1-3)[Man(a1-6)]Man = molecular target: Man(a1-3)[Man(a1-6)]Man
# Summary of the method: as §1
# [27] = molecular target: Man(a1-3)[Man(a1-6)]Man(a1-6)[Man(a1-2)Man(a1-3)]Man(b1-4)GlcNAc(b1-4)GlcNAc
# Summary of the method: as §1
# [28] = molecular target: Man(a1-3)[Man(a1-6)]Man(a1-6)[Man(a1-3)]Man
# Summary of the method: as §1
# [29] = molecular target: Man(a1-3)[Man(a1-6)]Man(a1-6)[Man(a1-3)]Man(b1-4)GlcNAc(b1-4)GlcNAc
# Summary of the method: as §1
# [30] = molecular target: Man(a1-3)[Man(a1-6)]Man(b1-4)GlcNAc(b1-4)GlcNAc
# Summary of the method: as §1
# [31] = molecular target: Man(a1-3)[Man(a1-6)]Man(b1-4)GlcNAc(b1-4)[Fuc(a1-6)]GlcNAc
# Summary of the method: as §1
# Man(a1-6)Man = molecular target: Man(a1-6)Man
# Summary of the method: as §1
# Man(b1-4)GlcNAc = molecular target: Man(b1-4)GlcNAc
# Summary of the method: as §1
# MurNAc(b1-4)GlcNAc = molecular target: MurNAc(b1-4)GlcNAc
# Summary of the method: as §1
binder,measurement,setting,value
"CBP21 (Serratia marcescens), O83009 (protein) MNKTSRTLLSLGLLSAAMFGVSQQANAHGYVESPASRAYQCKLQLNTQCGSVQAEPQSVEGLKGFPQAGPADGHIASADKSTFFELDQQTPTRWNKLNLKTGPNSFTWKLTARHSTTSWRYFITKPNWDASQPLTRASFDLTPFCQFNDGGAIPAAQVTHQCNIPADRSGSHVILAVWDIADTANAFYQAIDVNLSK",glycan array binding signal (z-score),[1],-0.172
same,glycan array binding signal (z-score),[2],0.179
same,glycan array binding signal (z-score),[3],0.51
same,glycan array binding signal (z-score),[4],0.778
same,glycan array binding signal (z-score),[5],0.204
same,glycan array binding signal (z-score),[6],-0.49
same,glycan array binding signal (z-score),[7],0.949
same,glycan array binding signal (z-score),GlcNAc(b1-3)GalNAc,-0.565
same,glycan array binding signal (z-score),GlcNAc(b1-3)Man,-0.429
same,glycan array binding signal (z-score),[8],-1.24
same,glycan array binding signal (z-score),[9],-0.334
same,glycan array binding signal (z-score),[10],-0.268
same,glycan array binding signal (z-score),[11],-0.123
same,glycan array binding signal (z-score),GlcNAc(b1-4)GlcNAc,-0.27
same,glycan array binding signal (z-score),[12],-0.647
same,glycan array binding signal (z-score),[13],-0.302
same,glycan array binding signal (z-score),[14],-0.484
same,glycan array binding signal (z-score),[15],-0.466
same,glycan array binding signal (z-score),[16],-0.678
same,glycan array binding signal (z-score),GlcNAc(b1-6)GalNAc,-0.468
same,glycan array binding signal (z-score),[17],-0.158
same,glycan array binding signal (z-score),Kdn(a2-3)Gal(b1-3)GalNAc,-1.11
same,glycan array binding signal (z-score),Kdn(a2-3)Gal(b1-3)GlcNAc,0.313
same,glycan array binding signal (z-score),Kdn(a2-3)Gal(b1-4)Glc,-0.897
same,glycan array binding signal (z-score),Kdn(a2-3)Gal(b1-4)GlcNAc,-0.375
same,glycan array binding signal (z-score),[18],-1.2
same,glycan array binding signal (z-score),Kdn(a2-6)Gal(b1-4)GlcNAc,-0.612
same,glycan array binding signal (z-score),[19],-0.42
same,glycan array binding signal (z-score),[20],0.108
same,glycan array binding signal (z-score),Man(a1-2)Man(a1-3)Man,-0.532
same,glycan array binding signal (z-score),[21],-0.063
same,glycan array binding signal (z-score),[22],-0.091
same,glycan array binding signal (z-score),[23],-1.58
same,glycan array binding signal (z-score),[24],-0.23
same,glycan array binding signal (z-score),[25],-0.748
same,glycan array binding signal (z-score),[26],-1.28
same,glycan array binding signal (z-score),Man(a1-3)[Man(a1-6)]Man,-0.045
same,glycan array binding signal (z-score),[27],0.228
same,glycan array binding signal (z-score),[28],-0.531
same,glycan array binding signal (z-score),[29],-1.08
same,glycan array binding signal (z-score),[30],0.015
same,glycan array binding signal (z-score),[31],0.113
same,glycan array binding signal (z-score),Man(a1-6)Man,-0.224
same,glycan array binding signal (z-score),Man(b1-4)GlcNAc,-0.727
same,glycan array binding signal (z-score),MurNAc(b1-4)GlcNAc,-0.161

# Some of the entries above in another layout:
binder	measurement	setting	value
CBP21 (Serratia marcescens), O83009 (protein) MNKTSRTLLSLGLLSAAMFGVSQQANAHGYVESPASRAYQCKLQLNTQCGSVQAEPQSVEGLKGFPQAGPADGHIASADKSTFFELDQQTPTRWNKLNLKTGPNSFTWKLTARHSTTSWRYFITKPNWDASQPLTRASFDLTPFCQFNDGGAIPAAQVTHQCNIPADRSGSHVILAVWDIADTANAFYQAIDVNLSK	glycan array binding signal (z-score)	[20]	0.108
same	glycan array binding signal (z-score)	Man(a1-2)Man(a1-3)Man	-0.532
same	glycan array binding signal (z-score)	[21]	-0.063
same	glycan array binding signal (z-score)	[22]	-0.091
same	glycan array binding signal (z-score)	[23]	-1.58
same	glycan array binding signal (z-score)	[24]	-0.23
same	glycan array binding signal (z-score)	[25]	-0.748
same	glycan array binding signal (z-score)	[26]	-1.28
